Data taken from ChEMBL document CHEMBL3988442, “University of Dundee, Small-Polar-MMV Screening Library” (2021).

Protein sequences, listed by entry. Tags and fused reporters are not part of them.
UniProt E9BF75, entry or part of it: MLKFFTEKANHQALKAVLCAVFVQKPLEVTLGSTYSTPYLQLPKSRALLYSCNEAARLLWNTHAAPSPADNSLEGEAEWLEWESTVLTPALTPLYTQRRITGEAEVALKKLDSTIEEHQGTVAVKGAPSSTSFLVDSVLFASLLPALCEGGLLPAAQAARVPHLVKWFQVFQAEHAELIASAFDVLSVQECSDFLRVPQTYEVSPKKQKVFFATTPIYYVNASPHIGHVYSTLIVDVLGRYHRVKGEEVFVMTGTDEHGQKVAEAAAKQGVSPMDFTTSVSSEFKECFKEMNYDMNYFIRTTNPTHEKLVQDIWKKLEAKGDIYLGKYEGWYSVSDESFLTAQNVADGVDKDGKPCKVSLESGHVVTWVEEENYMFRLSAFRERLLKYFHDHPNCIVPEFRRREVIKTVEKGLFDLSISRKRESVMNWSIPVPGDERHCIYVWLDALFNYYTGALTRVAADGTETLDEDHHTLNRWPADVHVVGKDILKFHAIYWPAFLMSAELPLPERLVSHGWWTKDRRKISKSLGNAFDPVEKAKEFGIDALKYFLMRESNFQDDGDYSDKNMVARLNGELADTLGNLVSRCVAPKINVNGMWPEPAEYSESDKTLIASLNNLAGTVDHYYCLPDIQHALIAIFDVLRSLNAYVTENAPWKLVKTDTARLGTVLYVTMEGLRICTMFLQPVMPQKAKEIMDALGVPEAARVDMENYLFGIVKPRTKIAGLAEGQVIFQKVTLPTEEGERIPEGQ

All values are in %. The controls that fix the scale are not given in the record; negative values are as filed. This is an unselected part of the compounds tested. A dash means the value is not listed here; it may have been measured.

A: 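Methionyl-tRNA synthetase (putative), Leishmania donovani (UniProt E9BF75). Primary screen of methionyl-tRNA synthetase; the read-out is not stated. The test concentration is not given. Values are per cent inhibition. Of about 68,000 compounds tested this way, about 24 (0.035%) reached 50% or more in at least one test.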
B: 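Assay on Mycobacterium tuberculosis, filed only as a heat shock assay from Cornell; the read-out is not stated. The concentration is filed as 10 mM, unlikely as a test dose, so the dose is not known. Higher reads as stronger inhibition (inferred: compounds with an IC50 in retests scored well above the rest). Size under these conditions: about 69,000 compounds, about 930 of them at 50% or above in at least one test.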

SMILES,A,B
CCN(CC)CC1CCN(C(=O)CCn2cccn2)CC1,13.65%,8.331%
CCCOc1ccc2c(c1)OCC(C(=O)NC(C)Cn1cccn1)=C2 (stereo unspecified),9.61%,5.489%
Cc1nc(CO[C@@H]2CN(Cc3ccco3)[C@@H]3COC[C@@H]32)cs1,18.75%,-
Cn1cnnc1C1CCCN(C(=O)NCCNc2ccccn2)C1 (stereo unspecified),7.639%,-4.704%
c1ccc(CCN2CCCC(c3ccnc4nccn34)C2)cc1 (stereo unspecified),17.45%,-8.424%
CC(C)n1cc(CN2CCCN(C(=O)c3nccnc3N)CC2)cn1,8.571%,-12.12%
COCCOc1ncccc1C(=O)N(C)c1ccc(OC)c(OC)c1,6.115%,2.518%
CCCS(=O)(=O)NCc1cccnc1OCC,7.087%,-1.203%
CN(CC(=O)NCC1CCCO1)Cc1nc2c(s1)CCCC2 (stereo unspecified),11.33%,-30.52%
CNC(=O)[C@H]1C[C@@H]2CN(S(=O)(=O)c3ccc(F)cc3)C[C@@H]2N1C,4.444%,-
COCCN1CCN(CCCc2nnnn2-c2ccccc2)CC1,3.623%,-0.8907%
COCC(=O)N(Cc1cccnc1)CC1CCCN(C2CCCCC2)C1 (stereo unspecified),12.11%,-2.268%
c1coc(CN2CCn3c(nc4ccccc43)C2)c1,-0.8499%,-14.86%
C=C(C)CN1CCN(Cc2cnc(OC)nc2)CC1,5.806%,-22.44%
COc1ccc(OC)c(CN(C(=O)c2ccc(C)[nH]c2=O)C2CC2)c1,5.955%,8.955%
O=C(N[C@]12CC1CN(C(=O)c1ccco1)C2)c1cccc(F)c1 (stereo partly specified),5%,-26.67%
c1cn(Cc2nnc(C3CCN(C4CCNCC4)CC3)n2C2CC2)cn1,15.84%,-8.383%
CCOCCC(=O)N1CCCC(c2ncc[nH]2)C1 (stereo unspecified),11.33%,-5.571%
Cc1ccc(OC2(C(=O)O)CCN(C(=O)CCc3ccco3)CC2)cc1,9.779%,4.2%
O=C(Cc1cccc(F)c1)N1CCc2ncnc(N3CCCC3)c2CC1,18.48%,-30.73%
Cc1ccc(CCCC(=O)N(C)CCN2CCOCC2)cc1,7.311%,-8.044%
Cc1cc(CN2CC[C@H]3OCC[C@@]3(C(=O)N3CCOCC3)C2)no1,15.3%,-
CCc1cc(C(=O)NCC2CCN(Cc3ccncc3)CC2)on1,7.99%,-9.382%
CCC(Nc1nc(C(F)(F)F)nc2ccccc12)C(=O)O (stereo unspecified),7.343%,-2.259%
CNc1cc(CNC(=O)c2ccccc2)nc(-c2ccncc2)n1,16.1%,-10.31%
Cc1noc(C2CCCN(C(=O)c3ccc(Cl)cc3F)C2)n1 (stereo unspecified),6.529%,4.125%
CCc1noc(C)c1C(=O)N1CCCC1Cn1cccn1 (stereo unspecified),8.571%,-11.22%
Cc1cc(CN2CCC(C3CCN(CCc4ccccc4)C3)CC2)[nH]n1 (stereo unspecified),14.2%,-107.2%
O=C1CCC2(CCCN(C(=O)c3ccc[nH]3)C2)CN1CCc1c[nH]cn1 (stereo unspecified),10.22%,5.249%
Cc1ccc(-c2nc(CCNC(=O)C3CC(=O)N(C)C3)cs2)cc1 (stereo unspecified),0.5988%,-4.868%
O=C(Nc1cc(F)ccc1OCC1CCCO1)c1ccoc1 (stereo unspecified),2.405%,-2.548%
[H][C@]12C[C@@H](Cn3cncn3)N(C(C)=O)[C@@]1([H])CCN(C(=O)NC1CC1)C2,-,-9.03%
COCCN1C(=O)[C@]2(CC[C@@H]3CN(Cc4ccccc4F)C[C@@H]32)N=C1C,14.42%,-
Cc1cccc(CN2C(=O)CCC23CCN(c2ncc(F)cn2)CC3)n1.O=C(O)C(F)(F)F,-,-27.53%
CN(Cc1ccoc1)c1ccc(-c2nccn2C)nn1,2.091%,21.15%
CNC(=O)c1ccc(C(=O)N2CCCCC2Cn2cc(C)cn2)cn1 (stereo unspecified),4.239%,2.221%
[H][C@@]12CCC(=O)N(CCCOC)[C@]1([H])CCN(Cc1ccc3nonc3c1)C2,-,-1.999%
[H][C@@]12CN(C(=O)c3cc(C)on3)C[C@@]1([H])N(CC1CC1)C(=O)CO2,-,-23.13%
COc1nc2c(cc1C(=O)NCCc1nc(C)c(C(=O)O)s1)CCC2,2.338%,-18.33%
CC(C)Cc1cc(NC(=O)c2cc(Cl)c[nH]2)n(C)n1,13.96%,38.73%
CC(NC1CCSCC1)c1ccccc1-n1cccn1 (stereo unspecified),14.37%,-14.26%
O=C(Cn1cc(I)cn1)N1CCCCCC1,17.34%,17.01%
O=C(C1SCCc2ccccc21)N1CCC(O)CC1 (stereo unspecified),10.05%,3.622%
CC(=O)N1CC(=O)N(c2cccnc2)CC12CCN(Cc1nccs1)C2.O=C(O)C(F)(F)F.O=C(O)C(F)(F)F (stereo unspecified),-,-35.03%
Cc1ncccc1C(=O)Nc1cccc(Cn2ccccc2=O)c1,7.619%,10.58%
Cc1csc(C(=O)N2CCCC(c3[nH]ncc3S(C)(=O)=O)C2)c1 (stereo unspecified),12%,-19.23%
Cc1cc(C2CCCN2C(=O)CN2C(=O)OC(C)(C)C2=O)on1 (stereo unspecified),20.25%,-1.537%
CSc1ccc(NCc2csc(C)n2)cc1F,7.258%,37.69%
CNC(=O)C1CCC2(CCN(c3nncs3)CC2)CO1.O=C(O)C(F)(F)F (stereo unspecified),-,-12.84%
CCCn1cc(-c2cc(-c3cnc(OC)nc3)c(C#N)c(N)n2)c(C)n1,15.86%,100.5%
CCN(Cc1nc(C)no1)C(=O)C1CC(=O)N(Cc2ccccn2)C1 (stereo unspecified),19.24%,-1.831%
CC(=O)N1CCC(Cc2cnc(-c3c(C)n[nH]c3C)cn2)C1 (stereo unspecified),8.711%,-190.9%
[H][C@@]12CC[C@H](Oc3ccccc3F)[C@]1([H])CN(C(=O)Cn1ccnc1)C2,-,-13.69%
CN(C)C1CCC2(CCN(Cc3nccn3C)CC2)c2ccccc21 (stereo unspecified),7.104%,-
CCc1nc(C)c(C(=O)NCCN2CCCC2)s1,21.31%,10.04%
Cc1nn(CCC#N)c(C)c1CCC(=O)N(C)C,2.29%,-
Cc1cc(CNC(=O)C2CCN(CC(N)=O)CC2)cc(C)n1,14.63%,-0.337%
CCS(=O)(=O)N1C[C@H]2C[C@H](C(=O)N(C)C)[C@@H](C1)O2,12.89%,-
CCC(CO)N(Cc1cccnc1)Cc1ccc(-c2ccn[nH]2)s1 (stereo unspecified),1.6%,-9.598%
Cc1cccc(CNCC2(O)CCCN(CC3CCCCC3)C2=O)n1 (stereo unspecified),14.44%,4.68%
COc1cccc(CNC2CCCOc3cc(C)ccc32)n1 (stereo unspecified),5.495%,-23.35%

8 of the entries, repeated:

SMILES	A	B
c1coc(CN2CCn3c(nc4ccccc43)C2)c1	-0.8499%	-14.86%
Cc1cc(CNC(=O)C2CCN(CC(N)=O)CC2)cc(C)n1	14.63%	-0.337%
c1cn(Cc2nnc(C3CCN(C4CCNCC4)CC3)n2C2CC2)cn1	15.84%	-8.383%
O=C(Cc1cccc(F)c1)N1CCc2ncnc(N3CCCC3)c2CC1	18.48%	-30.73%
CCS(=O)(=O)N1C[C@H]2C[C@H](C(=O)N(C)C)[C@@H](C1)O2	12.89%	-
CNC(=O)[C@H]1C[C@@H]2CN(S(=O)(=O)c3ccc(F)cc3)C[C@@H]2N1C	4.444%	-
O=C(Nc1cc(F)ccc1OCC1CCCO1)c1ccoc1 (stereo unspecified)	2.405%	-2.548%
Cc1ccc(-c2nc(CCNC(=O)C3CC(=O)N(C)C3)cs2)cc1 (stereo unspecified)	0.5988%	-4.868%